Experimental data published in article PMC7862700.
The list shows a part of the results, in another mix than the full data. At the low end of the ranking the order means little.

Molecular target: T1, ELF3 (UniProt P78545)
T1 sequence: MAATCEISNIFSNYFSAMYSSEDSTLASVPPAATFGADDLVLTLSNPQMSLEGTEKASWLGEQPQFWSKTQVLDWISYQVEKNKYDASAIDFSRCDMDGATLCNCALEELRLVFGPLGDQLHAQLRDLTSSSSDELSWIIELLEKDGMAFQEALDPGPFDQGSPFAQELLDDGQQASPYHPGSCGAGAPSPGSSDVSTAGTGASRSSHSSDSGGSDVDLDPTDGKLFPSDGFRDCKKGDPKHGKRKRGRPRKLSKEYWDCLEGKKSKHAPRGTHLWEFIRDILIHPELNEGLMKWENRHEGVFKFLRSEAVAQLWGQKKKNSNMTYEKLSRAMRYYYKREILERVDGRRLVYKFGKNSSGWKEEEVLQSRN
Assay: DAPPL (digital affinity profiling via proximity ligation, sequencing)
Conditions: 10 mM Tris-HCl pH 7.5, 50 mM NaCl, 1 mM DTT, 4% glycerol, room temperature, 30 min; GST-TFs on glutathione beads, 16-mer random dsDNA library, 0.1% …; high values mean tight binding; double strand, one strand shown; scale: fold enrichment (6-mer frequency, TF over GST control)

| Sequence | binding signal |
| --- | --- |
| TATAAA | 1.33 |
| TACTAT | 1.2 |
| TATCCC | 1.83 |
| CGATAG | 0.834 |
| CCTATA | 1.15 |
| GAAACT | 1.19 |
| TCATCA | 1.07 |
| CATGTT | 0.909 |
| GTCCTT | 1.16 |
| GTACTA | 0.862 |
| TTTAAT | 1.3 |
| TATACC | 1.12 |
| TGCTAG | 1.34 |
| CGATCA | 1.07 |
| GATTAA | 0.958 |
| AGTTAA | 1.09 |
| GAAACG | 1.27 |
| TGGACA | 1.15 |
| CAGGAA | 1.86 |
| TACATA | 1.18 |

An excerpt taken from the entries so far, as a working copy:

| Sequence | binding signal |
| --- | --- |
| GTACTA | 0.862 |
| TTTAAT | 1.3 |

Further results.

| Sequence | binding signal |
| --- | --- |
| TGATTT | 0.984 |
| CATTCG | 1.25 |
| GGTGTT | 1.03 |
| CATCAC | 1.14 |
| TTGGTT | 1.23 |
| CAGATG | 0.994 |
| TGCACA | 1.26 |
| TGTTGT | 1 |
| TGCGGC | 1.33 |
| ACGGTT | 0.921 |
| ACACTG | 0.911 |
| CGAATC | 1.11 |
| ACGACC | 1.25 |
| CCTTCG | 1.28 |
| TTCCAT | 1.2 |
| TTCCCA | 1.27 |
| CTGAAA | 1.28 |
| GCTCGA | 1.24 |
| TTGATC | 1.01 |
| CTGGGC | 0.819 |
